# According to the supplement of paper PMC8728848:
# Some of the results follow.
# Tests used:
# Assay in all cases: glycan array binding signal (z-score within array); higher = stronger binding
# Details in all cases: glycan notation: IUPAC condensed, linker removed
# [1] = target: Gal(b1-4)GlcNAc(b1-3)Gal(b1-4)GlcNAc(b1-2)Man(a1-3)[Gal(b1-4)GlcNAc(b1-3)Gal(b1-4)GlcNAc(b1-2)Man(a1-6)]Man(b1-4)GlcNAc(b1-4)[Fuc(a1-6)]GlcNAc
# Summary of the method: (§1)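 Glycan array binding is given as a within-array Z-score, which can be read as non-binding when negative. The arrays, 3228 of them, came from the Consortium for Functional Glycomics database and were retained only where the protein sequence was available. Z-scores were averaged across arrays of the same protein sequence at different concentrations or buffers and across linkers.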
# [2] = target: Gal(b1-4)GlcNAc(b1-3)Gal(b1-4)GlcNAc(b1-2)[Gal(b1-4)GlcNAc(b1-3)Gal(b1-4)GlcNAc(b1-6)]Man(a1-6)[Gal(b1-4)GlcNAc(b1-3)Gal(b1-4)GlcNAc(b1-2)Man(a1-3)]Man(b1-4)GlcNAc(b1-4)GlcNAc
# Summary of the method: as §1
# [3] = target: Gal(b1-4)GlcNAc(b1-3)Gal(b1-4)GlcNAc(b1-2)[Gal(b1-4)GlcNAc(b1-3)Gal(b1-4)GlcNAc(b1-6)]Man(a1-6)[Gal(b1-4)GlcNAc(b1-3)Gal(b1-4)GlcNAc(b1-2)Man(a1-3)]Man(b1-4)GlcNAc(b1-4)[Fuc(a1-6)]GlcNAc
# Summary of the method: as §1
# [4] = target: Gal(b1-4)GlcNAc(b1-3)Gal(b1-4)GlcNAc(b1-3)Gal(b1-4)GlcNAc
# Summary of the method: as §1
# [5] = target: Gal(b1-4)GlcNAc(b1-3)Gal(b1-4)GlcNAc(b1-3)Gal(b1-4)GlcNAc(b1-2)Man(a1-3)[Gal(b1-4)GlcNAc(b1-3)Gal(b1-4)GlcNAc(b1-3)Gal(b1-4)GlcNAc(b1-2)Man(a1-6)]Man(b1-4)GlcNAc(b1-4)GlcNAc
# Summary of the method: as §1
# [6] = target: Gal(b1-4)GlcNAc(b1-3)Gal(b1-4)GlcNAc(b1-3)Gal(b1-4)GlcNAc(b1-2)Man(a1-3)[Gal(b1-4)GlcNAc(b1-3)Gal(b1-4)GlcNAc(b1-3)Gal(b1-4)GlcNAc(b1-2)Man(a1-6)]Man(b1-4)GlcNAc(b1-4)[Fuc(a1-6)]GlcNAc
# Summary of the method: as §1
# [7] = target: Gal(b1-4)GlcNAc(b1-3)Gal(b1-4)GlcNAc(b1-3)Gal(b1-4)GlcNAc(b1-2)[Gal(b1-4)GlcNAc(b1-3)Gal(b1-4)GlcNAc(b1-3)Gal(b1-4)GlcNAc(b1-6)]Man(a1-6)[Gal(b1-4)GlcNAc(b1-3)Gal(b1-4)GlcNAc(b1-3)Gal(b1-4)GlcNAc(b1-2)Man(a1-3)]Man(b1-4)GlcNAc(b1-4)[Fuc(a1-6)]GlcNAc
# Summary of the method: as §1
# [8] = target: Gal(b1-4)GlcNAc(b1-3)Gal(b1-4)GlcNAc(b1-3)Gal(b1-4)GlcNAc(b1-3)Gal(b1-4)GlcNAc(b1-2)Man(a1-3)[Gal(b1-4)GlcNAc(b1-3)Gal(b1-4)GlcNAc(b1-3)Gal(b1-4)GlcNAc(b1-3)Gal(b1-4)GlcNAc(b1-2)Man(a1-6)]Man(b1-4)GlcNAc(b1-4)GlcNAc
# Summary of the method: as §1
# [9] = target: Gal(b1-4)GlcNAc(b1-3)Gal(b1-4)GlcNAc(b1-3)Gal(b1-4)GlcNAc(b1-3)Gal(b1-4)GlcNAc(b1-2)Man(a1-3)[Gal(b1-4)GlcNAc(b1-3)Gal(b1-4)GlcNAc(b1-3)Gal(b1-4)GlcNAc(b1-3)Gal(b1-4)GlcNAc(b1-2)Man(a1-6)]Man(b1-4)GlcNAc(b1-4)[Fuc(a1-6)]GlcNAc
# Summary of the method: as §1
# [10] = target: Gal(b1-4)GlcNAc(b1-3)Gal(b1-4)GlcNAc(b1-3)Gal(b1-4)GlcNAc(b1-3)Gal(b1-4)GlcNAc(b1-2)[Gal(b1-4)GlcNAc(b1-3)Gal(b1-4)GlcNAc(b1-3)Gal(b1-4)GlcNAc(b1-3)Gal(b1-4)GlcNAc(b1-6)]Man(a1-6)[Gal(b1-4)GlcNAc(b1-3)Gal(b1-4)GlcNAc(b1-3)Gal(b1-4)GlcNAc(b1-3)Gal(b1-4)GlcNAc(b1-2)Man(a1-3)]Man(b1-4)GlcNAc(b1-4)[Fuc(a1-6)]GlcNAc
# Summary of the method: as §1
# [11] = target: Gal(b1-4)GlcNAc(b1-3)Gal(b1-4)GlcNAc(b1-3)Gal(b1-4)GlcNAc(b1-3)Gal(b1-4)GlcNAc(b1-3)Gal(b1-4)GlcNAc(b1-2)Man(a1-3)[Gal(b1-4)GlcNAc(b1-3)Gal(b1-4)GlcNAc(b1-3)Gal(b1-4)GlcNAc(b1-3)Gal(b1-4)GlcNAc(b1-3)Gal(b1-4)GlcNAc(b1-2)Man(a1-6)]Man(b1-4)GlcNAc(b1-4)GlcNAc
# Summary of the method: as §1
# [12] = target: Gal(b1-4)GlcNAc(b1-3)Gal(b1-4)GlcNAc(b1-3)Gal(b1-4)GlcNAc(b1-3)Gal(b1-4)GlcNAc(b1-3)Gal(b1-4)GlcNAc(b1-2)Man(a1-3)[Gal(b1-4)GlcNAc(b1-3)Gal(b1-4)GlcNAc(b1-3)Gal(b1-4)GlcNAc(b1-3)Gal(b1-4)GlcNAc(b1-3)Gal(b1-4)GlcNAc(b1-2)Man(a1-6)]Man(b1-4)GlcNAc(b1-4)[Fuc(a1-6)]GlcNAc
# Summary of the method: as §1
# [13] = target: Gal(b1-4)GlcNAc(b1-3)Gal(b1-4)GlcNAc(b1-3)Gal(b1-4)GlcNAc(b1-3)Gal(b1-4)GlcNAc(b1-3)Gal(b1-4)GlcNAc(b1-2)[Gal(b1-4)GlcNAc(b1-3)Gal(b1-4)GlcNAc(b1-3)Gal(b1-4)GlcNAc(b1-3)Gal(b1-4)GlcNAc(b1-3)Gal(b1-4)GlcNAc(b1-6)]Man(a1-6)[Gal(b1-4)GlcNAc(b1-3)Gal(b1-4)GlcNAc(b1-3)Gal(b1-4)GlcNAc(b1-3)Gal(b1-4)GlcNAc(b1-3)Gal(b1-4)GlcNAc(b1-2)Man(a1-3)]Man(b1-4)GlcNAc(b1-4)[Fuc(a1-6)]GlcNAc
# Summary of the method: as §1
# [14] = target: Gal(b1-4)GlcNAc(b1-3)Gal(b1-4)GlcNAc(b1-3)Gal(b1-4)GlcNAc(b1-3)Gal(b1-4)GlcNAc(b1-3)Gal(b1-4)GlcNAc(b1-3)Gal(b1-4)GlcNAc(b1-2)Man(a1-3)[Gal(b1-4)GlcNAc(b1-3)Gal(b1-4)GlcNAc(b1-3)Gal(b1-4)GlcNAc(b1-3)Gal(b1-4)GlcNAc(b1-3)Gal(b1-4)GlcNAc(b1-3)Gal(b1-4)GlcNAc(b1-2)Man(a1-6)]Man(b1-4)GlcNAc(b1-4)GlcNAc
# Summary of the method: as §1
# [15] = target: Gal(b1-4)GlcNAc(b1-3)Gal(b1-4)GlcNAc(b1-3)GalNAc
# Summary of the method: as §1
# [16] = target: Gal(b1-4)GlcNAc(b1-3)Gal(b1-4)GlcNAc(b1-3)[Gal(b1-4)GlcNAc(b1-3)Gal(b1-4)GlcNAc(b1-6)]GalNAc
# Summary of the method: as §1
# [17] = target: Gal(b1-4)GlcNAc(b1-3)Gal(b1-4)GlcNAc(b1-6)[Gal(b1-3)]GalNAc
# Summary of the method: as §1
# [18] = target: Gal(b1-4)GlcNAc(b1-3)Gal(b1-4)[Fuc(a1-3)]GlcNAc(b1-3)Gal(b1-4)[Fuc(a1-3)]GlcNAc
# Summary of the method: as §1
# [19] = target: Gal(b1-4)GlcNAc(b1-3)GalNAc
# Summary of the method: as §1
# [20] = target: Gal(b1-4)GlcNAc(b1-3)[Fuc(a1-3)GlcNAc(b1-6)]Gal(b1-4)Glc
# Summary of the method: as §1
# [21] = target: Gal(b1-4)GlcNAc(b1-3)[Gal(b1-4)GlcNAc(b1-6)]Gal(b1-4)GlcNAc
# Summary of the method: as §1
# [22] = target: Gal(b1-4)GlcNAc(b1-3)[GlcNAc(b1-6)]Gal(b1-4)GlcNAc
# Summary of the method: as §1
# [23] = target: Gal(b1-4)GlcNAc(b1-6)Gal(b1-4)GlcNAc
# Summary of the method: as §1
# [24] = target: Gal(b1-4)GlcNAc(b1-6)GalNAc
# Summary of the method: as §1
# [25] = target: Gal(b1-4)GlcNAc(b1-6)[Gal(b1-3)]GalNAc
# Summary of the method: as §1
# [26] = target: Gal(b1-4)GlcNAc(b1-6)[Gal(b1-4)GlcNAc(b1-3)]GalNAc
# Summary of the method: as §1
# Gal(b1-4)GlcNAc6P = target: Gal(b1-4)GlcNAc6P
# Summary of the method: as §1
# Gal(b1-6)Gal = target: Gal(b1-6)Gal
# Summary of the method: as §1
# Gal3S(b1-3)GalNAc = target: Gal3S(b1-3)GalNAc
# Summary of the method: as §1
# Gal3S(b1-3)GlcNAc = target: Gal3S(b1-3)GlcNAc
# Summary of the method: as §1
binder,measurement,setting,value
"CcfD (Bacteroides fragilis), Q5L9G4 (protein) MKKQNSIYTLLIALLCFVSSCDYLGVSDQLAGGLQNTEQVFDNVSYTKRWYANVFAGIPDYSGINSVNVGAFKNPWTGMCDELVVGYGNSSKYNNSDRNAANMGFHRYGDCYKYIRQANIFLQKAHPIMTTGTQGDQLLEDELTQMKANVRFMRAFYHYLLFEQYGPIILVKDKIYNATEDQDVPRNTVDEVIEYIDSELTAVASELTQEPIFEDKDYRAWPTKGVALAVRAKLWLYAASPLLNGGYREALSVTNPDGTRLFPDYDAGKWEKALAACKDFIDYAEAGRYELYKEYKDDNGAVIDPDKSVYNLFQKYTHEIIWATANNDWGGMNGDAFDRRIAPRCEKNGLGSTGVTQELVDAFYMKDGFPVSATAYLPQSTLYQEEGYGTYKDQNDNFSKKYTNVTVSNRYLNREPRFYNTVFFNGRQWPVSCNQVLFYNGGNSGVQEGQATLTGYMLFKRFNRSVSLTNPGVASQFRPSIIFRLADFYLMYAEAANEVNPNDARVLKYLNLVRERAGLPDIETLNPAIRGNQELQRAAIQRERQIELATEGQRYFDVRRWMIADKNGEGRQNGYVHGMNVRGESNDKEDFNRIVEASQIVFNRKMYLYPMPDSEMRKTKNLVQNPGW",glycan array binding signal (z-score),[1],1.5
same,glycan array binding signal (z-score),[2],0.956
same,glycan array binding signal (z-score),[3],1.7
same,glycan array binding signal (z-score),[4],-0.896
same,glycan array binding signal (z-score),[5],2.2
same,glycan array binding signal (z-score),[6],1.57
same,glycan array binding signal (z-score),[7],2.18
same,glycan array binding signal (z-score),[8],0.929
same,glycan array binding signal (z-score),[9],0.43
same,glycan array binding signal (z-score),[10],0.049
same,glycan array binding signal (z-score),[11],0.095
same,glycan array binding signal (z-score),[12],0.831
same,glycan array binding signal (z-score),[13],-0.319
same,glycan array binding signal (z-score),[14],-1.11
same,glycan array binding signal (z-score),[15],0.43
same,glycan array binding signal (z-score),[16],-0.148
same,glycan array binding signal (z-score),[17],1.46
same,glycan array binding signal (z-score),[18],-0.864
same,glycan array binding signal (z-score),[19],-0.998
same,glycan array binding signal (z-score),[20],-0.069
same,glycan array binding signal (z-score),[21],-0.726
same,glycan array binding signal (z-score),[22],-0.91
same,glycan array binding signal (z-score),[23],-0.87
same,glycan array binding signal (z-score),[24],-1.03
same,glycan array binding signal (z-score),[25],0.499
same,glycan array binding signal (z-score),[26],-0.499
same,glycan array binding signal (z-score),Gal(b1-4)GlcNAc6P,-0.24
same,glycan array binding signal (z-score),Gal(b1-6)Gal,-0.969
same,glycan array binding signal (z-score),Gal3S(b1-3)GalNAc,0.942
same,glycan array binding signal (z-score),Gal3S(b1-3)GlcNAc,0.059

# Random excerpt: 2 records from the list
binder,measurement,setting,value
"CcfD (Bacteroides fragilis), Q5L9G4 (protein) MKKQNSIYTLLIALLCFVSSCDYLGVSDQLAGGLQNTEQVFDNVSYTKRWYANVFAGIPDYSGINSVNVGAFKNPWTGMCDELVVGYGNSSKYNNSDRNAANMGFHRYGDCYKYIRQANIFLQKAHPIMTTGTQGDQLLEDELTQMKANVRFMRAFYHYLLFEQYGPIILVKDKIYNATEDQDVPRNTVDEVIEYIDSELTAVASELTQEPIFEDKDYRAWPTKGVALAVRAKLWLYAASPLLNGGYREALSVTNPDGTRLFPDYDAGKWEKALAACKDFIDYAEAGRYELYKEYKDDNGAVIDPDKSVYNLFQKYTHEIIWATANNDWGGMNGDAFDRRIAPRCEKNGLGSTGVTQELVDAFYMKDGFPVSATAYLPQSTLYQEEGYGTYKDQNDNFSKKYTNVTVSNRYLNREPRFYNTVFFNGRQWPVSCNQVLFYNGGNSGVQEGQATLTGYMLFKRFNRSVSLTNPGVASQFRPSIIFRLADFYLMYAEAANEVNPNDARVLKYLNLVRERAGLPDIETLNPAIRGNQELQRAAIQRERQIELATEGQRYFDVRRWMIADKNGEGRQNGYVHGMNVRGESNDKEDFNRIVEASQIVFNRKMYLYPMPDSEMRKTKNLVQNPGW",glycan array binding signal (z-score),[20],-0.069
same,glycan array binding signal (z-score),[13],-0.319
